For experiment [1], the target named is T1, Flag-Halo-tagged CTCF WT (dox-inducible rescue) (UniProt Q61164).
T1 sequence: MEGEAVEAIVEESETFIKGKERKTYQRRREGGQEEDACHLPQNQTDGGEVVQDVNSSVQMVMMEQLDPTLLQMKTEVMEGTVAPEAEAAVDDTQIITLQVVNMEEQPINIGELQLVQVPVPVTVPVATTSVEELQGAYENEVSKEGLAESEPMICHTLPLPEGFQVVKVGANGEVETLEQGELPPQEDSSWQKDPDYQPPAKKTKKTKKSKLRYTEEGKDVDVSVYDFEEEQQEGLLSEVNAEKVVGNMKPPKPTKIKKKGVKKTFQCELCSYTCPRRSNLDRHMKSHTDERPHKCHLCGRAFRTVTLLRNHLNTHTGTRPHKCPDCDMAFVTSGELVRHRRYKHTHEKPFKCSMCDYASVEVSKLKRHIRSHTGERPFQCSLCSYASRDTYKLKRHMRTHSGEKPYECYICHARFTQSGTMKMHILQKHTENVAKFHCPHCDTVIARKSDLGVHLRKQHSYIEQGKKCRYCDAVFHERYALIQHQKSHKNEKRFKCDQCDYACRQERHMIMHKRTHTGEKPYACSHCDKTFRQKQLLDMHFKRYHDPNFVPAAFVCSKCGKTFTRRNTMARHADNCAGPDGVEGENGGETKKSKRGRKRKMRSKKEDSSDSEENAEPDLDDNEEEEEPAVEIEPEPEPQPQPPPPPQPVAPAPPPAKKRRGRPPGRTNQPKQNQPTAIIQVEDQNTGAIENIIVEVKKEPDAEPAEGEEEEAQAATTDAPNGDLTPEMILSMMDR
Description: co-IP; same anti-Flag immunoprecipitation from the chromatin fraction; pooled Flag peptide elution separated by SDS-PAGE, Western blot for CTCF and Rad21.

For experiment [2], the target named is T2, Flag-Halo-tagged CTCF ΔZF1 (dox-inducible rescue) (UniProt Q61164).
T2 sequence: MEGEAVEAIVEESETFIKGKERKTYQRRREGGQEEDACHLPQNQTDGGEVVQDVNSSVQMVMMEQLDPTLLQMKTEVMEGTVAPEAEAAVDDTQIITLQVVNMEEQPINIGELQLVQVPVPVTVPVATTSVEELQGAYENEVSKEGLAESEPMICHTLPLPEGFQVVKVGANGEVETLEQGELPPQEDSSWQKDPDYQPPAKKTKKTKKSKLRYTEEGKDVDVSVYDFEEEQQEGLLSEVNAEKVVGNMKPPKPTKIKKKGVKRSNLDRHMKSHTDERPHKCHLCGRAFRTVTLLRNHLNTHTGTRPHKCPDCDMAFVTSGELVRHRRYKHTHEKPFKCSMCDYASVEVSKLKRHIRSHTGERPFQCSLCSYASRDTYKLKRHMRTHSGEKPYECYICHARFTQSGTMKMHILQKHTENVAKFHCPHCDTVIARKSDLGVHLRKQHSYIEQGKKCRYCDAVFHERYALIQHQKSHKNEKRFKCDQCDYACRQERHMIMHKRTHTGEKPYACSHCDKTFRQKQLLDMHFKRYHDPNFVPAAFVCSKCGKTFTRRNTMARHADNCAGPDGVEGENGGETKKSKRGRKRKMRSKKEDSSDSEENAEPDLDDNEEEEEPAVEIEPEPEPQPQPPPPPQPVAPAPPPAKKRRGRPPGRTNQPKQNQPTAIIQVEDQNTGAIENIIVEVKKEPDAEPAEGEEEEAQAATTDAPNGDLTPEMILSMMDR
The description is as above.

No constants are given. Whether binding was seen depends on the method and setting. Binding seen in cells or lysates may run through a third protein. Some binding calls cover weakened binding; strength is not graded here. Tags and fused reporters may be left off the sequences shown.

B1: Rad21 (protein, UniProt Q61550 1-635)
chain: MFYAHFVLSKRGPLAKIWLAAHWDKKLTKAHVFECNLESSVESIISPKVKMALRTSGHLLLGVVRIYHRKAKYLLADCNEAFIKIKMAFRPGVVDLPEENREAAYNAITLPEEFHDFDQPLPDLDDIDVAQQFSLNQSRVEEITMREEVGNISILQENDFGDFGMDDREIMREGSAFEDDDMLVSTSASNLLLEPEQSTSNLNEKMNHLEYEDQYKDDNFGEGNDGGILDDKLISNNDGGIFDDPPALSEAGVMLPEQPAHDDMDEDDNGSLGGPDSPDSVDPVEPMPTMTDQTTLVPNEEEAFALEPIDITVKETKAKRKRKLIVDSVKELDSKTIRAQLSDYSDIVTTLDLAPPTKKLMMWKETGGVEKLFFLPAQPLWNNRLLKLFTRCLTPLVPEDLRKRRKGGEADNLDEFLKEFENPEVPREEQQPQQQQPQPQRDVIDEPIIEEPSRLQDSVMEASRTTIEESAMPPPPPQGVKRKAGQIDPEPSIPPQQVEQMEIPPVELPPEEPPNICQLIPELELLPEKEKEKEKEKEEEEEEEDEDASGGDQDQEERRWNKRTQQMLHGLQRALAKTGAESISLLELCRNTNRKQAAAKFYSFLVLKKQQAIELTQEEPYSDIIATPGPRFHII
In the case of B1, the binding entry in experiment [1] and in experiment [2] was “binds” in each case.

The values above are taken from publication PMC12652319.
